Assay results: EPA's CvTdb concentration-time database
Values joined by “and” are separate entries in the source; they are usually repeats but may differ in a detail not shown here. Equal entries are not always repeated. This continues a long series; more values of the same kind are listed elsewhere.

What was measured:
Experiment in all cases: concentration in plasma after dosing
Mouse [1] = details: dosed: 2-Hydroxy-4-methoxybenzophenone, 100 mg/kg, oral, Male, B6C3F1
Mouse [2] = details: 5 min; dosed: 2-Hydroxy-4-methoxybenzophenone; 50 mg/kg; iv; Male; B6C3F1
Rat [3] = details: 2 h; dosed: 2-Hydroxy-4-methoxybenzophenone; 500 mg/kg; oral; Male; F344
Rat [4] = details: 10 min; dosed: 2-Hydroxy-4-methoxybenzophenone; 8 mg/kg; iv; Female; F344
Mouse [5] = details: 5 min; dosed: 2-Hydroxy-4-methoxybenzophenone; 250 mg/kg; oral; Female; B6C3F1
Mouse [6] = details: 5 min; dosed: 2-Hydroxy-4-methoxybenzophenone; 250 mg/kg; oral; Male; B6C3F1
Mouse [7] = details: 1 h; dosed: 2-Hydroxy-4-methoxybenzophenone; 500 mg/kg; oral; Male; B6C3F1
Mouse [8] = details: 6 h; dosed: 2-Hydroxy-4-methoxybenzophenone; 50 mg/kg; iv; Female; B6C3F1
Mouse [9] = details: 2.5 min; dosed: 2-Hydroxy-4-methoxybenzophenone; 500 mg/kg; oral; Male; B6C3F1
Mouse [10] = details: 5 min; dosed: 2-Hydroxy-4-methoxybenzophenone; 250 mg/kg; oral; Female; B6C3F1; remark: listed apart in the source
Mouse [11] = details: 1 h; dosed: 2-Hydroxy-4-methoxybenzophenone; 50 mg/kg; iv; Female; B6C3F1
Mouse [12] = details: 4 h; dosed: 2-Hydroxy-4-methoxybenzophenone; 250 mg/kg; oral; Female; B6C3F1
Rat [13] = details: dosed: 2-Hydroxy-4-methoxybenzophenone, 250 mg/kg, oral, Female, F344
Rat [14] = details: dosed: 2-Hydroxy-4-methoxybenzophenone, 500 mg/kg, oral, Male, F344
Rat [15] = details: dosed: 2-Hydroxy-4-methoxybenzophenone, 100 mg/kg, oral, Male, F344
Rat [16] = details: dosed: 2-Hydroxy-4-methoxybenzophenone, 500 mg/kg, oral, Male, F344; remark: listed apart in the source
Mouse [17] = details: 7 h; dosed: 2-Hydroxy-4-methoxybenzophenone; 250 mg/kg; oral; Male; B6C3F1
Mouse [18] = details: 1.5 h; dosed: 2-Hydroxy-4-methoxybenzophenone; 250 mg/kg; oral; Male; B6C3F1
Mouse [19] = details: 12 h; dosed: 2-Hydroxy-4-methoxybenzophenone; 500 mg/kg; oral; Female; B6C3F1
Mouse [20] = details: 8 h; dosed: 2-Hydroxy-4-methoxybenzophenone; 50 mg/kg; iv; Male; B6C3F1
Rat [21] = details: dosed: 2-Hydroxy-4-methoxybenzophenone, 100 mg/kg, oral, Female, F344
Mouse [22] = details: 6 h; dosed: 2-Hydroxy-4-methoxybenzophenone; 50 mg/kg; iv; Male; B6C3F1
Rat [23] = details: dosed: 2-Hydroxy-4-methoxybenzophenone, 100 mg/kg, oral, Female, F344; remark: listed apart in the source
Mouse [24] = details: 5 min; dosed: 2-Hydroxy-4-methoxybenzophenone; 50 mg/kg; iv; Female; B6C3F1
Mouse [25] = details: 6 h; dosed: 2-Hydroxy-4-methoxybenzophenone; 250 mg/kg; oral; Male; B6C3F1
Mouse [26] = details: 4 h; dosed: 2-Hydroxy-4-methoxybenzophenone; 50 mg/kg; iv; Female; B6C3F1
Mouse [27] = details: 12 h; dosed: 2-Hydroxy-4-methoxybenzophenone; 50 mg/kg; iv; Male; B6C3F1
Rat [28] = details: dosed: 2-Hydroxy-4-methoxybenzophenone, 250 mg/kg, oral, Male, F344
Mouse [29] = details: 7 h; dosed: 2-Hydroxy-4-methoxybenzophenone; 250 mg/kg; oral; Female; B6C3F1
Rat [30] = details: dosed: 2-Hydroxy-4-methoxybenzophenone, 250 mg/kg, oral, Male, F344; remark: listed apart in the source
Mouse [31] = details: 1.5 h; dosed: 2-Hydroxy-4-methoxybenzophenone; 50 mg/kg; iv; Female; B6C3F1
Rat [32] = details: dosed: 2-Hydroxy-4-methoxybenzophenone, 8 mg/kg, iv, Male, F344
Rat [33] = details: 12 h; dosed: Perfluorohexanoic Acid; 80 mg/kg; oral; Female; Harlan Sprague Dawley
Rat [34] = details: dosed: Perfluorohexanoic Acid, 160 mg/kg, oral, Male, Harlan Sprague Dawley
Rat [35] = details: dosed: Perfluorohexanoic Acid, 40 mg/kg, oral, Male, Harlan Sprague Dawley

O=C(c1ccccc1)c1ccc(O)cc1O [2,4-Dihydroxybenzophenone]
Details | concentration in plasma [ng/mL]
Mouse [1], 0.5 h | 397
Mouse [1], 0.75 h | 297
Mouse [1], 1 h | 206
Mouse [1], 1.5 h | 144
Mouse [1], 4 h | 130
Mouse [1], 5 h | 122
Mouse [1], 5 min | 135
Mouse [1], 6 h | 124
Rat [13], 1.5 h | 316
Rat [13], 8 h | 88.5
Rat [14], 1 h | 1610
Rat [14], 8 h | 228
Rat [15], 1.5 h | 135
Rat [15], 8 h | 46.3
Rat [16], 1 h | 1180
Rat [16], 8 h | 182

Details | concentration in plasma
Mouse [2] | 3760 ng/mL
Mouse [5] | 74.3 ng/mL
Mouse [6] | 343 ng/mL
Mouse [7] | 1170 ng/mL
Mouse [8] | 30.5 ng/mL
Mouse [9] | 237 ng/mL
Mouse [10] | 944 ng/mL
Mouse [11] | 83.6 ng/mL
Mouse [12] | 53.6 ng/mL
Mouse [17] | 185 ng/mL
Mouse [18] | 539 ng/mL
Mouse [19] | 81.3 ng/mL and 125 ng/mL
Rat [3] | 323 ng/mL
Rat [4] | 97.9 ng/mL

COc1ccc(C(=O)c2ccccc2)c(O)c1 [2-Hydroxy-4-methoxybenzophenone]
Details | concentration in plasma [ng/mL]
Mouse [20] | 14.3
Mouse [22] | 38.6
Mouse [24] | 17900
Mouse [25] | 47.4
Mouse [26] | 129
Mouse [27] | 12.7
Mouse [29] | 12
Mouse [31] | 381

Details | concentration in plasma [ng/mL]
Rat [21], 2 h | 14.3
Rat [21], 5 min | 7.37
Rat [23], 1.5 h | 74.9
Rat [23], 8 h | 5.22
Rat [28], 2 h | 123
Rat [28], 5 min | 12.3
Rat [30], 0.5 h | 527
Rat [30], 10 h | 13
Rat [32], 1.5 h | 72.5
Rat [32], 12 h | 53.5

O=C(O)C(F)(F)C(F)(F)C(F)(F)C(F)(F)C(F)(F)F [Perfluorohexanoic Acid]
Details | concentration in plasma [ng/mL]
Rat [33] | 484

concentration in plasma [ng/mL]
Details | 0.25 h | 0.75 h | 6 h | 12 h
Rat [34] | – | 171000 | – | 4270
Rat [35] | 33800 | – | 10500 | –
